The results in this text go back to publication PMC6572767.

Amino acid sequences for entries named in this document (tags omitted). Residues count along the entry.
UniProt P09382: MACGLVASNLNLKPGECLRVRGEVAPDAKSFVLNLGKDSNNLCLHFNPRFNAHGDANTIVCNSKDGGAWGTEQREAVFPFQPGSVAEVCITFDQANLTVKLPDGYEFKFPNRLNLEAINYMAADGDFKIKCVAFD
UniProt P11362, residues 22-822: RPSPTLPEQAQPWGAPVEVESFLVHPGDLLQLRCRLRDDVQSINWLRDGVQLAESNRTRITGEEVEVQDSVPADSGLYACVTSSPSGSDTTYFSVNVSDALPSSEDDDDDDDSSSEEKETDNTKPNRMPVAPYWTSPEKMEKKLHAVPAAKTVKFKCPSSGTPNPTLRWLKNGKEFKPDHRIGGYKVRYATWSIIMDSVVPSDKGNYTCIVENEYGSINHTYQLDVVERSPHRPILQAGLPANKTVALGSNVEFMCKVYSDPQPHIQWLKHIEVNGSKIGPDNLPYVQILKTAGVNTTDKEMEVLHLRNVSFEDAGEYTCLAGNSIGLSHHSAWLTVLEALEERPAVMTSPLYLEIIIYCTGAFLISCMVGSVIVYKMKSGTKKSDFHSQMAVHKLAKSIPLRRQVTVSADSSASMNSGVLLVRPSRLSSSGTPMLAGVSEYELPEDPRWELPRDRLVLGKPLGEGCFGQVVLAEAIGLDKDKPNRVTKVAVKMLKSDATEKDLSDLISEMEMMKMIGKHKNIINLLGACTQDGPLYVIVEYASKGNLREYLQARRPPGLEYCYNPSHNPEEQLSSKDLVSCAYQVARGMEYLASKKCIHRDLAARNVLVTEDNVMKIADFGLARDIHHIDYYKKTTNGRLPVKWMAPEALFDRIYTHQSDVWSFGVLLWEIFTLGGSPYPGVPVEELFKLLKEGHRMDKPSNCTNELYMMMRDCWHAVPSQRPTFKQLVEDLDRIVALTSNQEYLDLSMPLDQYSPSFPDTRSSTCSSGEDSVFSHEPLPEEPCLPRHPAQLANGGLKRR
UniProt P16092, residues 22-822: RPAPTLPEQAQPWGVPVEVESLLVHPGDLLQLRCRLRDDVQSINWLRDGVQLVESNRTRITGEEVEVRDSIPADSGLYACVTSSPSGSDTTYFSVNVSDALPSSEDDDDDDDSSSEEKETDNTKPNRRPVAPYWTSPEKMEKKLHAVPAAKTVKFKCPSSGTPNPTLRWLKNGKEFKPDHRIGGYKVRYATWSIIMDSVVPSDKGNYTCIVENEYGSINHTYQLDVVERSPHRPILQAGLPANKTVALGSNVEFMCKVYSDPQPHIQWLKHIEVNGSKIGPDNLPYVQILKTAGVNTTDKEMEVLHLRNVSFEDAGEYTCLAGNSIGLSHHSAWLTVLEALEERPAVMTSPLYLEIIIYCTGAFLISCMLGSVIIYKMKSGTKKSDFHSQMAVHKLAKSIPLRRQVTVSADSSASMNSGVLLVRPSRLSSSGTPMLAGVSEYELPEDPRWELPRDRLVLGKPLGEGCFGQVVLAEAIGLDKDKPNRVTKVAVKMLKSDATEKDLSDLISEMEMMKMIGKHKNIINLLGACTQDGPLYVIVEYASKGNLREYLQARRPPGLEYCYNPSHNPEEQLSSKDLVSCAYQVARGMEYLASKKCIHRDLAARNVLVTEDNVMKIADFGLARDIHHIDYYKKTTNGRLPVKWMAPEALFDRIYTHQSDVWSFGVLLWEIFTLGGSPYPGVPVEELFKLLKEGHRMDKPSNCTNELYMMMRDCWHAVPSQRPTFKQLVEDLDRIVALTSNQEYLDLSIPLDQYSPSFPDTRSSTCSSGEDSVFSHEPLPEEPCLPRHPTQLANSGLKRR
UniProt P21802, residues 22-377: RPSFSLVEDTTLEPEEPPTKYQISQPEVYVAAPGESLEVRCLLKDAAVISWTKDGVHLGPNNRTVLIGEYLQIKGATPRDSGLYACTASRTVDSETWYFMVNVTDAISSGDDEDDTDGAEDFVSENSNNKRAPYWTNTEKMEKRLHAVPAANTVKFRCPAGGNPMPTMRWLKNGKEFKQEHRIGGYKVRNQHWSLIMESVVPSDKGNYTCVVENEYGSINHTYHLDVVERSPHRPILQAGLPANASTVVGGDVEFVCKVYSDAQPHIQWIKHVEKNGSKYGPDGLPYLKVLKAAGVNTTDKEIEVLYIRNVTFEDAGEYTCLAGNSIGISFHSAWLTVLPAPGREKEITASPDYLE
UniProt P22607, residues 23-375: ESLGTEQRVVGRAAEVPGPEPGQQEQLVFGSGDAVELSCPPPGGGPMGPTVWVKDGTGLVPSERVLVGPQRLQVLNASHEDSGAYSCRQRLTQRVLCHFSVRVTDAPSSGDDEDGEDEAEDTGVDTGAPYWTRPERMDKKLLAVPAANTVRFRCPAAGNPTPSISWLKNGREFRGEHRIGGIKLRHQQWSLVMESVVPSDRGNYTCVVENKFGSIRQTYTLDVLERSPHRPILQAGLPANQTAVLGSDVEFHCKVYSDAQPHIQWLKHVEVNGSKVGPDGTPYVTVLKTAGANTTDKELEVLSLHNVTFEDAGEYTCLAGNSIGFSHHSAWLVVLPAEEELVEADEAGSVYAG
UniProt P10809, residues 27-573: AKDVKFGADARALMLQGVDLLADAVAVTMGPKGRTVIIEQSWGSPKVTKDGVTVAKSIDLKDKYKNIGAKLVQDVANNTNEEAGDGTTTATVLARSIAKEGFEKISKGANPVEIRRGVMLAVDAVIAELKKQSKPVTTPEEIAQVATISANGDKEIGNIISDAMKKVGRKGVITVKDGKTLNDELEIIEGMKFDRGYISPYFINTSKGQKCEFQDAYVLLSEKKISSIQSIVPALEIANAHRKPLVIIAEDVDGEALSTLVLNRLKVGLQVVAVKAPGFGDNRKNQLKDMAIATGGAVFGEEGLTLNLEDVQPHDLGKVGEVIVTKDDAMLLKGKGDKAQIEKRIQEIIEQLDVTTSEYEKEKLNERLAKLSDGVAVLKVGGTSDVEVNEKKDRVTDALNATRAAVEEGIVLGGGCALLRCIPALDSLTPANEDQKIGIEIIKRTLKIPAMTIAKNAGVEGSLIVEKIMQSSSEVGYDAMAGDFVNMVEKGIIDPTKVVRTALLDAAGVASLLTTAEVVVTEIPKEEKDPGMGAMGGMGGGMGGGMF
UniProt Q15418: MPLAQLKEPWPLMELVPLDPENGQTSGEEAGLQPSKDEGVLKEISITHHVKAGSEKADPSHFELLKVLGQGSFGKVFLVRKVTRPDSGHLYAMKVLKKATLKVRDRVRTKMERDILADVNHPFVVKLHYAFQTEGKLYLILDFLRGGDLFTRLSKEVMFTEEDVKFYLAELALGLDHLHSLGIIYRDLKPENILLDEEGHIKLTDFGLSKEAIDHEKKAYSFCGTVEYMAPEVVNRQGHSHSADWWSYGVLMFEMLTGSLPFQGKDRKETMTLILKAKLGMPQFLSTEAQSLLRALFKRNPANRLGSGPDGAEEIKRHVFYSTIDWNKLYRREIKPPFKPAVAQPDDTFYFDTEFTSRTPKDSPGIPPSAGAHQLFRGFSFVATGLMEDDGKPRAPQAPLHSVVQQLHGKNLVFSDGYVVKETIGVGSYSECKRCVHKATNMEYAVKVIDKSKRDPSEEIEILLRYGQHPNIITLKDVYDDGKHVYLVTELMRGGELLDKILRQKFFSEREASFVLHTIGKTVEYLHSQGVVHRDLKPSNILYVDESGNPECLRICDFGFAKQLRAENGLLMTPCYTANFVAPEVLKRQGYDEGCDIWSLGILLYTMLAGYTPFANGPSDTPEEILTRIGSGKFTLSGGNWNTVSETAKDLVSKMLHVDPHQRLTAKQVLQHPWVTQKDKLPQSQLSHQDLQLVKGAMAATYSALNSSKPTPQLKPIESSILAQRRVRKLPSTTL
UniProt P16045: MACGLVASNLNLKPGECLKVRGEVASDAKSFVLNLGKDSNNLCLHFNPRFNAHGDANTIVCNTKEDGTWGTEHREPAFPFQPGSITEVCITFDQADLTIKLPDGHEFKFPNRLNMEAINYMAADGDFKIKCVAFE
UniProt P16110: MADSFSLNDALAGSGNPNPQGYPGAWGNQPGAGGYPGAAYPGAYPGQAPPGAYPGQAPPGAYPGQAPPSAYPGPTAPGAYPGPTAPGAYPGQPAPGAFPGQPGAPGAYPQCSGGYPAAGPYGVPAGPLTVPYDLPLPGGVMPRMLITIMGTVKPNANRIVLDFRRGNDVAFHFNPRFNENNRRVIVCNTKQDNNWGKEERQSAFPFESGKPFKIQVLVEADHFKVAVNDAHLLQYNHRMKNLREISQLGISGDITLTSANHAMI
UniProt P17931: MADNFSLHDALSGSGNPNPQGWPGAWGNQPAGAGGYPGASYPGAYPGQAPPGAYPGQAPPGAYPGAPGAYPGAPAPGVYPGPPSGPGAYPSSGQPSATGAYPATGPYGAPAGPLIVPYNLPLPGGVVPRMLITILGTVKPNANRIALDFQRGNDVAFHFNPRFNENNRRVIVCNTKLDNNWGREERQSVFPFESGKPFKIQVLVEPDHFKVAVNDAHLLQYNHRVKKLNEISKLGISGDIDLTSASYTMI

Results are given in words; binding and its absence hold for the method and conditions named. For some assays here: In cells and extracts the contact can be indirect. Some binding calls cover weakened binding; strength is not graded here. For some assays here: Where a sequence is shown, tags or fusion partners need not be part of it.

Assay [1] has as its target recombinant galectin-1 (His-Tag fusion) (UniProt P09382). Description: pull-down; His-tagged galectin-1 or galectin-3 (10 μg) bound to Ni-NTA agarose in 50 mM Tris, 150 mM NaCl, pH 7.4; U2OS-R1 lysate, 2 h at 4 °C; western blotting; only the target purified.
In assay [2] the target is streptavidin-binding peptide (SBP)-tagged FGFR1 (UniProt P11362). The experiment in a line: pull-down; Streptavidin-Agarose pull down of SBP-FGFR1 from U2OS-SBP-R1 lysate (control U2OS-R1), 3 h at 4 °C; western blotting.
Assay [3] addresses endogenous FGFR1 (NIH3T3 cells) (mouse (endogenous in NIH3T3)) (UniProt P16092). Description: co-IP; endogenous proteins in NIH3T3 cells; details in Additional file 1: Figure S2.
Assay [4] has as its target streptavidin-binding peptide (SBP)-tagged FGFR1 (UniProt P11362). Description: pull-down; U2OS-SBP-R1 cells treated with FGF1 (50 ng/ml) and heparin (10 U/ml) or not, fractionated into membrane, cytosolic and nuclear fractions; co-purification with SBP-FGFR1; western blotting.
Assay [5] deals with full-length extracellular portion of FGFR2 (IIIc) fused to Fc (UniProt P21802). The experiment in a line: BLI; Octet RED K2; FGFR1ecd-Fc to FGFR4ecd-Fc (10 μg/ml) immobilised on AR2G or Protein-A sensors, galectin-1 or galectin-3 10–30 μg/ml; for binding constants 2.8 μM to 11.4 μM galectin, heterogeneous ligand (2:1) model; empty reference sensor subtracted; both purified.
Assay [6] concerns the target full-length extracellular portion of FGFR3 (IIIc) fused to Fc (UniProt P22607). The description is as above.
Assay [7] concerns the target T1, full-length extracellular portion of FGFR4 fused to Fc (UniProt P22455).
T1 sequence: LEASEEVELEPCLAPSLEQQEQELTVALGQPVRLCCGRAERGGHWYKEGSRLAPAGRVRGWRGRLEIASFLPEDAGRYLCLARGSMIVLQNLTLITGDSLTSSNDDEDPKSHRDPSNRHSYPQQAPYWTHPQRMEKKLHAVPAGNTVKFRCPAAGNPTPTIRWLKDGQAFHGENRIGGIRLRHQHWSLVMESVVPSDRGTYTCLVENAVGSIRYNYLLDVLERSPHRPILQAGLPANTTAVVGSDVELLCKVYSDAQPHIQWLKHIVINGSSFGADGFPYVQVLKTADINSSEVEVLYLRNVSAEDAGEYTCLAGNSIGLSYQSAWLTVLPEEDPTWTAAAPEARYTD
The description is as above.

“FGFR1 (non-tagged, U2OS-R1 cells) (from UniProt P11362 22-822) (receptor)”: in assay [1], the binding entry was “binds”.
As to Hsp60 (from UniProt P10809 27-573), in assay [2], the binding entry is given as “no binding”.
In the case of “RSK1 (Ribosomal S6-kinase) (from UniProt Q15418 1-735) (enzyme)”, in assay [2], the binding result is “binds”.
Take “endogenous galectin-1 (NIH3T3 cells) (from UniProt P16045 1-135)”: the binding entry in assay [3] is recorded as “binds”.
On to “endogenous galectin-3 (NIH3T3 cells) (from UniProt P16110 1-264)”, for which the binding result in assay [3] is recorded as “binds”.
Take “endogenously expressed galectin-1 (U2OS-SBP-R1 cells) (from UniProt P09382 1-135)”: the binding result in assay [2] and in assay [4] was “binds” in each case.
As for “recombinant galectin-1 (His-Tag fusion) (from UniProt P09382 1-135)”, the binding entry in assay [5], in assay [6] and in assay [7] was “binds” each time.
For “recombinant galectin-3 (His-Tag fusion) (from UniProt P17931 1-250)”, the binding result in assay [5], in assay [6] and in assay [7] was “binds” in each case.

B1: EGF-like repeat and discoidin I-like domain-containing protein 3 (protein, UniProt O43854 24-480)
chain: DICDPNPCENGGICLPGLADGSFSCECPDGFTDPNCSSVVEVASDEEEPTSAGPCTPNPCHNGGTCEISEAYRGDTFIGYVCKCPRGFNGIHCQHNINECEVEPCKNGGICTDLVANYSCECPGEFMGRNCQYKCSGPLGIEGGIISNQQITASSTHRALFGLQKWYPYYARLNKKGLINAWTAAENDRWPWIQINLQRKMRVTGVITQGAKRIGSPEYIKSYKIAYSNDGKTWAMYKVKGTNEDMVFRGNIDNNTPYANSFTPPIKAQYVRLYPQVCRRHCTLRMELLGCELSGCSEPLGMKSGHIQDYQITASSIFRTLNMDMFTWEPRKARLDKQGKVNAWTSGHNDQSQWLQVDLLVPTKVTGIITQGAKDFGHVQFVGSYKLAYSNDGEHWTVYQDEKQRKDKVFQGNFDNDTHRKNVIDPPIYARHIRILPWSWYGRITLRSELLGCTEEE
Consider B1, for which, in assay [2], the binding entry was “binds”.
